The target of series [1] is T1, GlnR (endogenous) (Streptococcus salivarius 57.I) (UniProt Q5UBU4).
T1 sequence (looked up, limits assumed): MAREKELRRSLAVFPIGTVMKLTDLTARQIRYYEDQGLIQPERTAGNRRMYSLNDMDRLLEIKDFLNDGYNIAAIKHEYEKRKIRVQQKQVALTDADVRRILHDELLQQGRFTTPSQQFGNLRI
Briefly: pull-down (DAPA). Particulars: 20 nM probe, 500 ug lysate; DAPA: 10 mM Tris-HCl pH 7.6, 60 mM KCl, 5% glycerol, 0.5 mM EDTA, 1 mM DTT, 4 C 1 h; protein in an extract; label: biotin 3' end.

Series [2] relates to MalE-alpha-CTD (RNA polymerase alpha subunit C-terminal domain). Put plainly: EMSA. The note with it: 0.25-4 uM protein, abolished by 300-fold unlabeled probe; EMSA: 50 mM Tris-HCl pH 7.4, 50 mM KCl, 2 mM MgCl2, 100 ng poly(dI-dC), 0.5 ug BSA, 0.01 pmol probe, 4 C 30 min; recombinant protein; protein details: MalE (MBP); label: biotin.
The target of series [3] is T2, VicR (endogenous) (Streptococcus salivarius 57.I) (UniProt J7TI38).
T2 sequence (looked up, limits assumed): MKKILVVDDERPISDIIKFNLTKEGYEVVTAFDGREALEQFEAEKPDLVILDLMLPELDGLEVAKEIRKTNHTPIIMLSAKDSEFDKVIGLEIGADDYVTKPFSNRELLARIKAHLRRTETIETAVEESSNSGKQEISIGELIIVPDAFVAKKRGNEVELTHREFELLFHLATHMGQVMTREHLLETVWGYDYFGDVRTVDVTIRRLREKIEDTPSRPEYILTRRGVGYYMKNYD
Briefly: pull-down (DAPA). Particulars: 20 nM probe, 1 mg lysate; DAPA: 10 mM Tris-HCl pH 7.6, 60 mM KCl, 5% glycerol, 0.5 mM EDTA, 1 mM DTT, 4 C 1 h; protein in an extract; label: biotin 3' end.

This note sets out measurements from PMC4888889.

For at least one entry, the source does not settle the construct or the ends of the probe. For some assays here: Results from cells or extracts need not show a direct contact. For some assays here: Negatives hold for the conditions tested. For some assays here: Tags and fusion partners may be left off the protein sequences shown.

As for “ACCACATGTTAGCTTGACTAATATGTAAAT (double strand) [GlnR box 1 probe]”, the binding result in series [1] was “binds”.

Consider “CCTGTAAATGTTGCAAAATCC (double strand) [21-bp alpha-CTD probe (VicR box / UP element)]”, for which the binding result in series [2] is reported as “binds”.

Consider “AATGTAATGTCATTTTTTGACACCACATGT (double strand) [GlnR box 2 probe]”, for which, in series [1], the binding result is recorded as “binds”.

Take “CTAATACTAGTGTAATAATAGTATTCTGAA (double strand) [mutated VicR box probe]”: the binding result in series [3] is “no binding”.

For the sequence “CTAATATGTAAATGTTGCAAAATTTCTGAA (double strand) [VicR box probe]”, the binding result in series [3] is listed as “binds”.
